A short description of this data set: H2S release / formulation stability in simulated intestinal fluid. The note with it: SIF, 37° C., 1 mg/ml. How it is done: Assay design: 1 mg of exemplary ASD no. 1 and crystalline otenaproxesul were weighed in separate glass vials. SIF was added to prepare a 1 mg/ml solution which was incubated at 37° C. with 5% CO2. 120 μl was removed at 0.5, 1, 2, 3, 4 and 8 hrs and quenched in DPD (N,N-dimethyl-p-phenylenediamine sulfate) and FeCl3 solutions. A calibration curve was prepared to quantify amount of H2S released. A blank and 10 mM stock was also analyzed. The methylene blue was analyzed using HPLC.

With `COc1ccc2cc([C@H](C)C(=O)Oc3ccc(C(N)=S)cc3)ccc2c1` [crystalline otenaproxesul], the “H2S release, initial” value is listed as “did not release significant H2S initially”. The same compound gave an H2S release (8 h) of 8.5 µM.
